# Assay results taken from publication PMC12067444, “Synthesis and Pharmacological Characterization of Novel Peripheral Cannabinoid-1 Receptor Blockers Based on a Tricyclic Scaffold” (Journal of Medicinal Chemistry, 2025).
# Test system: HepG2 cells
# Assay: Cell viability assay (CellTiter Glo)
# Assay type: cell-based
# Settings: 72 h
# Method: Cell viability assay. To assess the cell viability, which indicates the toxicity of the novel compounds, a total of 3,000 HepG2 cells were seeded into a 384-well plate. The compounds were then dispensed onto the cell plate using a Tecan D300e digital dispenser. Following compound addition, 35 μL CellTiter Glo reagent was added to all wells of the assay plate, and the plate was mixed for 30 sec on an or bital shaker to lyse cells. Subsequently, the plate was incubated at room temperature for 10 minutes. The luminescence signal was measured using a 384-well plate reader (EnVision). The obtained data were analyzed using XL-fit software (ID Business Solutions Ltd., Software version: XL fit 5. 5. 0. 5). The percentage of inhibition was calculated using the […]
# Inhibition (%) = (1-Sample / ZPE) ×100
# Sample represents the test compound's luminesc e nce signal, and ZPE represents the luminescence signal f r om the zer o-percent enzyme control.
compound,measurement,setting,value
"CN[C@@H]1C[C@H]2O[C@@](C)([C@@H]1OC)n1c3ccccc3c3c4c(c5c6ccccc6n2c5c31)C(=O)NC4 [Staurosporine, reference compound]",Bottom (%) of cell viability inhibition curve,,1.13%
same,Top (%) of cell viability inhibition curve,,71.33%
same,IC50,"Homo sapiens, read-out: cell viability Absolute IC50",0.08 µM
